Test results published in PMC4550850.
No constants are given. Whether binding was seen depends on the method and setting. In cells and extracts the contact can be indirect. A yes stands for co-enrichment or nearness to the bait. Other partners may have been found.

By UniProt entry, the sequences of proteins in these tests, tags left out.
UniProt Q8IVB5: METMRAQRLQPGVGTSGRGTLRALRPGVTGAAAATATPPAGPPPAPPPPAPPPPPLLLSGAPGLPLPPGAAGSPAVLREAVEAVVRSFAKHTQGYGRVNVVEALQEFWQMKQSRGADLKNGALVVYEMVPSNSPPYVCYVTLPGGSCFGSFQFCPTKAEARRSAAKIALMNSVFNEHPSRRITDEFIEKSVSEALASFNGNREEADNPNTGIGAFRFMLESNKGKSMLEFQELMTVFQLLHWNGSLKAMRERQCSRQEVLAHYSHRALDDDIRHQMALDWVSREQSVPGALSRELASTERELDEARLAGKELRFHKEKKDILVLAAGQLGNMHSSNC

Target: FLAG-LIX1L fusion protein (Limb expression 1-like) (human) (UniProt Q8IVB5)
Assay: affinity purification with mass spectrometry; anti-FLAG immunoprecipitation from the nuclear fraction of HEK-293FLG-LIX1L cells, treated without RNase; differentially expressed bands identified by MALDI-TOF/TOF

- binding: binds
B1: hnRNPL (protein, UniProt P14866 1-589)
chain: MSRRLLPRAEKRRRRLEQRQQPDEQRRRSGAMVKMAAAGGGGGGGRYYGGGSEGGRAPKRLKTDNAGDQHGGGGGGGGGAGAAGGGGGGENYDDPHKTPASPVVHIRGLIDGVVEADLVEALQEFGPISYVVVMPKKRQALVEFEDVLGACNAVNYAADNQIYIAGHPAFVNYSTSQKISRPGDSDDSRSVNSVLLFTILNPIYSITTDVLYTICNPCGPVQRIVIFRKNGVQAMVEFDSVQSAQRAKASLNGADIYSGCCTLKIEYAKPTRLNVFKNDQDTWDYTNPNLSGQGDPGSNPNKRQRQPPLLGDHPAEYGGPHGGYHSHYHDEGYGPPPPHYEGRRMGPPVGGHRRGPSRYGPQYGHPPPPPPPPEYGPHADSPVLMVYGLDQSKMNCDRVFNVFCLYGNVEKVKFMKSKPGAAMVEMADGYAVDRAITHLNNNFMFGQKLNVCVSKQPAIMPGQSYGLEDGSCSYKDFSESRNNRFSTPEQAAKNRIQHPSNVLHFFNAPLEVTEENFFEICDELGVKRPSSVKVFSGKSERSSSGLLEWESKSDALETLGFLNHYQMKNPNGPYPYTLKLCFSTAQHAS
